Measurements from patent publication US20220312749A1 (BIOCYTOGEN PHARMACEUTICALS BEIJING, published 2022).
No constants are given. Whether binding was seen depends on the method and setting. Some entries that bind do so weakly or less than the wild type.

Sequences of proteins named here, by UniProt entry; tags and fusion partners are left off. Residues count along the entry.
UniProt P60568, residues 21-153: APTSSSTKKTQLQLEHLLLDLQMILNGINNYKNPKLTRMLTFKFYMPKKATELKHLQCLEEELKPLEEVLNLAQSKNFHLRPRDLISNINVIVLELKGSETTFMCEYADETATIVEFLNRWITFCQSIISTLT

Target: T1, mouse IL2RA protein (NP_032393.3) (mouse) (UniProt P01590)
T1 sequence: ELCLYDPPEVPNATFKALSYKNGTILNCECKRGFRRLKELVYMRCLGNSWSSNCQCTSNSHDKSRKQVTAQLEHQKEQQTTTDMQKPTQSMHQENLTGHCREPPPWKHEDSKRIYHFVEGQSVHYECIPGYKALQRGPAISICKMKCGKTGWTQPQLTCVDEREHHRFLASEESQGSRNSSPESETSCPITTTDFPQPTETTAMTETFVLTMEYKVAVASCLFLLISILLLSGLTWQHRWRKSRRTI
Assay: inferred by the filing from p-STAT5 flow cytometry on wild-type mouse splenocytes

binding: binds
Substance: Human IL2 (hIL2) (from UniProt P60568 21-153) (ligand)
